# Data published in PubChem BioAssay AID2685 (National Center for Advancing Translational Sciences (NCATS), 2010).
# The campaign covered roughly 320,000 compounds. About 2,100 (0.66%) were called active. The shares of active, inactive and inconclusive entries below differ from those in the screen. Calls come from the whole dose curve; as a rule, active = well fitted inhibition curve with a large enough effect in the signal ratio, with a control signal flat (not every such curve was filed as active); inconclusive = small, poorly fitted or top-dose-only effect, or effect the other way, or a change in a side signal; inactive = flat fitted curve, though single readings scatter; the % refers to the signal ratio. Potencies of inconclusive entries are doubtful fits and often do not repeat.
# Assay: qHTS Assay for Lipid Storage Modulators in Drosophila S3 Cells
# Conditions: BODIPY lipid droplet fluorescence, 18-24 h, cells fed with added oleic acid; lipid storage change, negative = inhibition: at 46.1 µM (top of the series) unless noted
# How it was run: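 Drosophila S3 cells loaded with oleic acid (400 uM, as added) and compounds at several concentrations; lipid droplets imaged by 488-nm laser-scanning cytometry, 500–530 nm intensity and object ratio to cell channel. Percent activity normalized to 20 uM Triacsin C.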
# % is set by controls: 0 for no effect and ±100 for the full control effect; potency is the fitted concentration of half-maximal effect.
Compound,"lipid storage change, negative = inhibition",Potency
COc1ccc(-c2csc3ncnc(N4CCN(Cc5ccccc5)CC4)c23)cc1,inconclusive: 51.6%,–
Cc1ccc(C(=O)Nc2ccccc2C(=O)NCc2ccccc2)cc1,inconclusive: 13.1%,–
CCn1nc(C)c(C(=O)Nc2cc(Oc3ccc(Cl)cc3)cc([N+](=O)[O-])c2)c1C,–,"inconclusive: 6.51 µM [activator, single point]"
COc1cccc(OCc2nnc(SC)n2C)c1,inconclusive: 45.9%,–
CCC(CC)NC(=O)/C=C/c1cccc([N+](=O)[O-])c1,inconclusive: -45.2%,–
CCOC(=O)Cc1c(Sc2ccccc2)c2ccccc2n1C,inconclusive: 12.1%,–
COCCCn1c(Cc2ccccc2)nnc1SCC(=O)N1CCCCC1,inconclusive: 50%,–
CC(=O)NCCOC(=O)c1nn(Cc2ccccc2)c(=O)c2ccccc12,–,"inconclusive: 0.164 µM [activator, partial curve, poor fit]"
Cc1ccccc1NC(=O)C1CCCN1S(=O)(=O)c1ccc2c(c1)n(C)c(=O)c(=O)n2C (stereo not given),inconclusive: 7.74%,–
Clc1ccc(Cn2ncc3c(NCc4ccccc4)ncnc32)c(Cl)c1,inconclusive: 0.607%,–
O=C(COc1ccc(-c2nnco2)cc1)Nc1c(F)cccc1F,inconclusive: 11%,–
CCOc1ccccc1NC(=O)CCCNC(=O)c1ccc(Cl)cc1,inconclusive: -179%,–
CCC1CCCCN1S(=O)(=O)Cc1ccccc1Cl (stereo not given),inconclusive: -52.4% [cytotoxic] [at 0.00295 µM],–
N#Cc1ccccc1OCCn1cncn1,inconclusive: 60.7%,–
CC(C)C[C@H](NC(=O)OC(C)(C)C)C(=O)N[C@@H](CO)[C@H](O)[C@@H]1C[C@@H]1C(=O)NC1CC1,inconclusive: 41.3%,–
COc1cccc(CNC(=O)c2cc3oc4ccccc4c3n2C)c1OC,inconclusive: -4.28%,–
CCO[C@H]1c2c(ccc3ccc(=O)oc23)OC(C)(C)[C@@H]1O,inconclusive: -61.1%,–
Cc1cc(C)nc(N/N=C/c2ccccc2)n1,–,"inconclusive: 32.6 µM [falling, single point]"
O=C(Nc1cccc(-c2cn3ccsc3n2)c1)c1ccccc1,inconclusive: 14.9%,–
Cc1c(Cl)cccc1NC(=O)CN1CCC(C(O)(c2ccccc2)c2ccccc2)CC1,inconclusive: -164%,–
COC(=O)c1ccccc1N(C)S(C)(=O)=O,–,"inconclusive: 29.1 µM [falling, single point]"
CCOC(=O)c1c(C)[nH]c(C(=O)COC(=O)CN2C(=O)C3CCCCC3C2=O)c1C (stereo not given),inconclusive: 14%,–
O=C(CN1CCCN(Cc2ccc(F)cc2Cl)C1=O)NC1CCCC1,inconclusive: 7.85%,–
COc1ccc(CCNC(=O)COC(=O)C2CC2C)cc1 (stereo not given),–,"inconclusive: 29.1 µM [activator, single point]"
O=C(CSc1nnc2ccc(-c3ccccn3)nn12)Nc1ccccc1,inconclusive: 24.9%,–

Compound,"lipid storage change, negative = inhibition",Potency
COc1cc(NC(=O)CN2CCCCCC2)cc(OC)c1,–,"inconclusive: 10.3 µM [activator, partial curve]"
CC(c1ccco1)N(C(=O)C12CC3CC(CC(C)(C3)C1)C2)c1ccccn1 (stereo not given),inconclusive: -17.7%,–
CCCC(=O)Nc1nc2nc(-c3ccccc3)cc(-c3ccccc3)n2n1,inconclusive: -20.6%,–
Cc1onc(-c2ccccc2)c1C(=O)N1CCCCCC1,inconclusive: -8.03%,–
O=C1c2ccccc2C(=O)N1CCC1=CCCCC1,inconclusive: 45.6%,–
O=C(COC(=O)c1cccs1)Nc1cc(S(=O)(=O)N2CCOCC2)ccc1Cl,inconclusive: 3.86%,–
COc1ccc(Cl)cc1NC(=O)CN(C)C(=O)c1cc(-c2ccncc2)nc2ccccc12,inconclusive,–
COc1cccc(CC(=O)Nc2ccc3c(c2)CCC3)c1,–,"inconclusive: 9.2 µM [falling, partial curve]"
O=C(O)c1ccc(/C=C2\SC(=S)N(NC(=O)c3ccccc3[N+](=O)[O-])C2=O)cc1,–,"inconclusive: 1.84 µM [activator, full curve]"
O=C(Nc1ccc(N2CCCCC2)cc1)c1cccnc1Cl,–,"inconclusive: 2.31 µM [falling, full curve, poor fit]"
CCOc1ccc(CCNC(=O)c2cccc(-n3cnnn3)c2)cc1OCC,–,active: 0.0731 µM
O=C(CNC(=O)c1ccc(Cl)cc1)OCn1nnc2ccccc2c1=O,–,"inconclusive: 2.06 µM [activator, partial curve]"
CC(=O)N1CCc2cc(Br)cc(S(=O)(=O)N3CCN(C(=O)c4ccco4)CC3)c21,inconclusive: -22.5%,–
NS(=O)(=O)c1cccc(NC(=O)CSc2nc3ccccc3n2-c2ccccc2)c1,–,"inconclusive: 32.6 µM [falling, single point]"
CCn1c(=O)c2c(nc3n2CCCN3Cc2ccccc2)n(C)c1=O,inconclusive: 10.5%,–
COC(=O)c1c(NC(C)=O)sc(Cc2ccccc2)c1C,inconclusive: -17.2%,–
COc1ccc(S(=O)(=O)N2CCCC(C(=O)NCC3CCCO3)C2)cc1OC (stereo not given),–,"inconclusive: 0.231 µM [activator, single point]"
O=C(CN1CCN(Cc2ccccc2Cl)C1=O)NCCCN1CCOCC1,inconclusive: -12.8%,–
CCc1ccc(-c2cc(C(=O)NCc3ccco3)c3ccccc3n2)s1,inconclusive: -12%,–
C/C(=N\NC(=O)c1ccccc1NC(=O)c1ccc(Cl)cc1)c1ccncc1,inconclusive: 13.3%,–
COC(=O)C1=CN(c2ccc(Cl)cc2)C=C(C(=O)OC)C1c1ccc([N+](=O)[O-])cc1,inconclusive: -0.359%,–
N#CC1=C(N)Oc2n[nH]c(-c3ccccc3)c2C1c1ccncc1 (stereo not given),inconclusive: 14.2%,–
COc1ccc(CC(=O)OCC(=O)NC2CCCCCC2)cc1OC,inconclusive,–
O=C(Nc1cccc(Oc2ccc(C(=O)O)c(C(=O)O)c2)c1)c1ccc(-c2ccccc2)cc1,–,"inconclusive: 1.84 µM [falling, partial curve, poor fit]"
C/C(=N\N(c1ccccc1)c1ccccc1)c1ccc(O)cc1,inconclusive: 34.8%,–

# Rewritten with tabs: entries from further up.
Compound	lipid storage change, negative = inhibition	Potency
CCC(CC)NC(=O)/C=C/c1cccc([N+](=O)[O-])c1	inconclusive: -45.2%	–
CC(C)C[C@H](NC(=O)OC(C)(C)C)C(=O)N[C@@H](CO)[C@H](O)[C@@H]1C[C@@H]1C(=O)NC1CC1	inconclusive: 41.3%	–
